Test results reported in paper PMC5833342.
Results are given in words; binding and its absence hold for the method and conditions named. Binding seen in cells or lysates may run through a third protein. Some results given as binding are weak or reduced against the parent protein; the word gives no strength.

Amino acid sequences for entries named in this document (tags omitted). Residues count along the entry.
UniProt P10451, residues 17-314: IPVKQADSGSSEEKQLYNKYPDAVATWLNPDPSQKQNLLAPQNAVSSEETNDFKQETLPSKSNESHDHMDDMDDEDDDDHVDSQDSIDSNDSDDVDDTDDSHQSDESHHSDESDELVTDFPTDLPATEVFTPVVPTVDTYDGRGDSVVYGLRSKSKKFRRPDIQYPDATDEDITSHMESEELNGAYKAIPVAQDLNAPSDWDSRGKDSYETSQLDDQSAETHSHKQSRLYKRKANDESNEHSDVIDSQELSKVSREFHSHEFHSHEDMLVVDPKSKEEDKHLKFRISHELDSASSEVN
UniProt P35222: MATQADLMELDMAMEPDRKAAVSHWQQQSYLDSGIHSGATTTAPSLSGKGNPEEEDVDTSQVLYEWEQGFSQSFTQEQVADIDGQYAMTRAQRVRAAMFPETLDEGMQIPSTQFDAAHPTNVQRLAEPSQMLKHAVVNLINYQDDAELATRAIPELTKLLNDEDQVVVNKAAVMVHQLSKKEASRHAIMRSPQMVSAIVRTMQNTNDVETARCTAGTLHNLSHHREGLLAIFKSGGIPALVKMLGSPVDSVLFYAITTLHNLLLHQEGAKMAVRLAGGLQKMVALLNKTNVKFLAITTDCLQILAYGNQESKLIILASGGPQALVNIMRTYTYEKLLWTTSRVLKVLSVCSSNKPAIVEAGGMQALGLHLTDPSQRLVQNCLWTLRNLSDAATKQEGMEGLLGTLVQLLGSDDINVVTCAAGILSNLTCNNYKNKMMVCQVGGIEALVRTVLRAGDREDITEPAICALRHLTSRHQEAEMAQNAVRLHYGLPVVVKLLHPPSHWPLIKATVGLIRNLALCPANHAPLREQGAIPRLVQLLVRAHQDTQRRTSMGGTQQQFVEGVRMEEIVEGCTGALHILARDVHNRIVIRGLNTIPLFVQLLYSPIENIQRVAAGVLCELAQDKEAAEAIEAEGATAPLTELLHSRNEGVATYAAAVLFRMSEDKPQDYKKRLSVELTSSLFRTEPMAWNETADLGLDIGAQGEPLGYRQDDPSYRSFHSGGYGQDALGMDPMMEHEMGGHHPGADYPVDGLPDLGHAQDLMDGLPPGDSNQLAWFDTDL
UniProt P28482: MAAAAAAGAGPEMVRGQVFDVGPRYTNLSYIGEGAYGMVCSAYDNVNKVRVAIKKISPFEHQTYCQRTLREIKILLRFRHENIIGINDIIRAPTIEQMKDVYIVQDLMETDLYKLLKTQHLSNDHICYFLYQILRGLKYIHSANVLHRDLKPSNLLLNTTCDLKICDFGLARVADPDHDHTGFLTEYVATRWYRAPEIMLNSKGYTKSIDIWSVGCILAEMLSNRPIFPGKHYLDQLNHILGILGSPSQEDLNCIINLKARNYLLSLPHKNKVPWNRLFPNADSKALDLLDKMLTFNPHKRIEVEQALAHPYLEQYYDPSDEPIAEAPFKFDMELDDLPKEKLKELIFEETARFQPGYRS

Key:
Flag-OPN (Osteopontin) = Flag-OPN (Osteopontin) (UniProt P10451); assay: co-IP; CCLP1 and HEK293T cells transfected with empty vector or Flag-OPN; total cell lysates; IP with anti-Flag antibody and immunoblot
[1] = target: β-Catenin, endogenous (human (endogenous in CCLP1 and HEK293T)) (UniProt P35222); assay: co-IP; endogenous proteins; IP using anti-β-Catenin antibody with IgG as control; OPN detected by blot
[2] = target: MAPK1 (ERK2), endogenous (human (endogenous in CCLP1 and HEK293T)) (UniProt P28482); assay: co-IP; endogenous proteins in CCLP1 cells; IP with anti-MAPK1 monoclonal antibody, rabbit IgG as nonspecific control; OPN detected by anti-OPN antibody

binding (Flag-OPN (Osteopontin)) | binding [1] | binding [2] | Substance
binds | – | – | MAPK1 (ERK2), endogenous (from UniProt P28482 1-360)
– | binds | binds | Osteopontin (OPN), endogenous (from UniProt P10451 17-314)
binds | – | – | β-Catenin, endogenous (from UniProt P35222 1-781)
